{"sequences": {"note": "Chains of the proteins cited; added tags and fusions are not shown. Residues count along the entry.", "UniProt Q9H3R0, 1-420 limits assumed": "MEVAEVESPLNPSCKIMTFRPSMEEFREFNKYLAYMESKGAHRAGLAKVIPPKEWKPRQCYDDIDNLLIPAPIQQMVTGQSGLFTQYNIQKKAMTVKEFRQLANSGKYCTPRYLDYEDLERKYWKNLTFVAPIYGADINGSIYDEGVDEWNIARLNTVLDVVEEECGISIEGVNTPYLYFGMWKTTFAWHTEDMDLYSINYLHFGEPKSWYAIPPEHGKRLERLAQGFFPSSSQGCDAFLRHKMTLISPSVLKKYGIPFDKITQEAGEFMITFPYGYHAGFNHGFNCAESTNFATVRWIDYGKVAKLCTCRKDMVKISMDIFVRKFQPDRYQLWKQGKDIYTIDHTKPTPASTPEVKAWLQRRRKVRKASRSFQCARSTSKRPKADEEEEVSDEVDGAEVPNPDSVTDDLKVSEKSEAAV"}, "source": "PubChem BioAssay AID2099", "about": "(Broad Institute, 2009)", "note": "Screen size: about 330,000 compounds; about 230 (0.07%) were called active. Inconclusive results, whose numbers are uncertain, are shown with a selection of clear calls.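 Rule for the calls: active = more than half of a compound's replicate wells show inhibition beyond 50%, single wells judged on their own value; inconclusive = some, but no more than half, of replicates pass 50% inhibition; inactive = no replicate passes 50% inhibition.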"}
{"biological_target": "Lysine-specific demethylase 4C (Homo sapiens) (UniProt Q9H3R0)", "assay": "inhibitors of GASC-1 histone demethylase, primary screen, biochemical, fluorescence, DELFIA europium (AID 2099);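 note: signal counts dimethyl H3K9 product captured on neutravidin plate; 0% = median of DMSO wells and 100% = 0.3 times that DMSO median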", "conditions": "GST-JMJD2C(1-420) H3K9me3 demethylation, at 2.35 µM, active compounds read high"}
{"smiles": "O=C(N[C@@H](Cc1ccc(O)cc1)C(=O)O)c1ccc(C(F)(F)F)cc1", "inhibition": "inactive: 5.8%"}
{"smiles": "COc1cccc(NC(=S)NNC(=O)CCn2cc([N+](=O)[O-])cn2)c1", "inhibition": "inactive: -0.814%"}
{"smiles": "COc1ccc(-n2c(CNC(=O)c3cccs3)n[nH]c2=S)cc1", "inhibition": "inconclusive: -56.4%"}
{"smiles": "O=S(=O)(/N=C(/Nc1ccccn1)c1ccccc1)c1ccccc1", "inhibition": "inconclusive: -81%"}
{"smiles": "COc1ccc(Br)cc1C(=O)Nc1ccc(N2CCCC2)cc1", "inhibition": "inactive: 48.4%"}
{"smiles": "Cc1cc(C(C)(C)C)oc1C(=O)N1CCN(C(=O)c2oc(C(C)(C)C)cc2C)CC1", "inhibition": "inconclusive: -247%"}
{"smiles": "O=C(COc1ccc2ccc(=O)oc2c1)NC1CCN(Cc2ccccc2)CC1", "inhibition": "inconclusive: -80.1%"}
{"smiles": "Cc1cc(C)n2nc(SCC(=O)N/N=C/c3ccccc3F)nc2n1", "inhibition": "inconclusive: -91.5%"}
{"smiles": "OC[C@H]1O[C@@H](n2cnc3c(Nc4ccccc4)ncnc32)[C@H](O)[C@@H]1O", "inhibition": "inconclusive: -28.8%"}
{"smiles": "O=C(CCCOc1ccccc1)NCC1CCCO1", "note": "(stereo unspecified)", "inhibition": "inconclusive: -115%"}
{"smiles": "COc1ccc(C(=O)NC(C(=O)N2CCN(c3ccccc3O)CC2)C(C)C)cc1", "note": "(stereo unspecified)", "inhibition": "inconclusive: -65.9%"}
{"smiles": "CCOc1ccc(/C=N/NC(=O)C(=O)NCc2ccco2)cc1", "inhibition": "inactive: -0.197%"}
{"smiles": "COc1ccc(NC(=O)CN(C)C(=O)c2cccc(S(=O)(=O)N3CCN(C)CC3)c2)cc1", "inhibition": "inconclusive: -143%"}
{"smiles": "CCCc1cc(=O)oc2cc(C)cc(OCC(=O)NCCN3CCOCC3)c12", "inhibition": "inconclusive: -99.7%"}
{"smiles": "COc1ccc(Cc2c(O)nc(SCC(=O)N3CCCCCC3)[nH]c2=O)cc1", "inhibition": "inconclusive: -26.6%"}
{"smiles": "Cc1ccc(NC(=O)CSc2nc3ccccc3c(=O)n2CCCC(=O)NCC2CCCO2)cc1", "note": "(stereo unspecified)", "inhibition": "inconclusive: -107%"}
{"smiles": "C/C=C/c1ccc(OCC(=O)OCC2=C(C(=O)OCC)C(C)NC(=O)N2)c(OC)c1", "note": "(stereo unspecified)", "inhibition": "inconclusive: -154%"}
{"smiles": "COc1cc2c(cc1NC(=S)NC(=O)c1c(OC)cccc1OC)oc1ccccc12", "inhibition": "inactive: -1.46%"}
{"smiles": "CCSc1nc2c(c(=O)[nH]1)C(c1cccnc1)C(C(=O)OC)=C(C)N2", "note": "(stereo unspecified)", "inhibition": "inactive: -7.74%"}
{"smiles": "CC1(/[N+]([O-])=C\\c2ccccc2F)CCCCC1=O", "note": "(stereo unspecified)", "inhibition": "inconclusive: -51.8%"}
{"smiles": "CC(Oc1ccc2c(c1)oc(=O)c1ccccc12)C(=O)NCCN1CCOCC1", "note": "(stereo unspecified)", "inhibition": "inconclusive: -130%"}
{"smiles": "Cc1ccc(OCCC(=O)OCC(=O)c2c(N)n(C)c(=O)n(C)c2=O)cc1", "inhibition": "inconclusive: -87.5%"}
{"smiles": "CCCC(CCC)C(=O)OC1C[C@H]2CC[C@@H](C1)[N+]2(C)C", "note": "(stereo partly specified)", "inhibition": "inconclusive: -29%"}
{"smiles": "O=C(NCCc1ccccc1)c1ccc(NS(=O)(=O)c2ccc3[nH]c(=O)[nH]c3c2)cc1", "inhibition": "inconclusive: -127%"}
{"smiles": "CC1CCC(NC(=O)COC(=O)CSc2ccc(C(N)=O)cc2[N+](=O)[O-])CC1", "note": "(stereo unspecified)", "inhibition": "inconclusive: -94.2%"}
{"smiles": "CCOC(=S)NC(=O)c1sc2ccccc2c1Cl", "inhibition": "inconclusive: -161%"}
{"smiles": "Cc1sc2nc(CN3CCOCC3)nc(NS(=O)(=O)c3cc(Cl)ccc3Cl)c2c1C", "inhibition": "active: 55.5%"}
{"smiles": "COc1ccc(/C=N/NC(=O)c2[nH]c3ccc(Cl)cc3c2-c2ccccc2)c(C(=O)O)c1OC", "inhibition": "inconclusive: -64.8%"}
{"smiles": "CCC(=O)Nc1cccc(C2=NOC3(C2)C[C@@H](C(N)=O)N(C(=O)c2cc([N+](=O)[O-])cc([N+](=O)[O-])c2C)C3)c1", "note": "(stereo partly specified)", "inhibition": "inconclusive: -56.3%"}
{"smiles": "Cc1ccc(NC(=O)CSCCc2ccccn2)nc1", "inhibition": "inactive: 4.1%"}
{"smiles": "CN(CC(=O)Nc1ccc(F)c(F)c1)S(=O)(=O)c1cccc2nsnc12", "inhibition": "inconclusive: -86.2%"}
{"smiles": "CCN(CC)c1ccc(C(=O)Nc2ccccc2)cc1[N+](=O)[O-]", "inhibition": "inactive: 5.71%"}
{"smiles": "Cc1ccc(S(=O)(=O)Nc2ccc3c(c2)C(=O)N([C@H](C)CO)C[C@H](C)[C@@H](CN(C)Cc2ccc(-c4ccccc4)cc2)O3)cc1", "inhibition": "active: 56.4%"}
{"smiles": "COc1cc(C(=O)NCCN2C(=O)S/C(=C\\c3ccc(F)cc3)C2=O)ccc1OCC(=O)N1CCOCC1", "inhibition": "inactive: 0.374%"}
{"smiles": "CCC1=NN(C(=O)c2ccc(Br)cc2)C(O)(c2ccc(C)cc2)C1", "note": "(stereo unspecified)", "inhibition": "inconclusive: -45.9%"}
{"smiles": "Cn1nc(C(F)(F)F)c(-c2ccc(Br)cc2)c1NC(=O)c1ccco1", "inhibition": "inconclusive: -56.4%"}
{"smiles": "COC(=O)C1=COC(C)C2CN3CCc4c([nH]c5ccccc45)C3CC12", "note": "(stereo unspecified)", "inhibition": "inconclusive: -360%"}
{"smiles": "O=C(CN1C(=O)S/C(=C\\c2cccs2)C1=O)Nc1ccc(O)cc1C(=O)O", "inhibition": "inconclusive: -109%"}
{"smiles": "Cc1sc2nc(C(C)C)nc(SCC(=O)NC3CC3)c2c1C", "inhibition": "inconclusive: -80.4%"}
{"smiles": "Cc1cc(N2CCN(C)CC2)ccc1NC(=O)c1ccc(-c2ccc(Cl)cc2)o1", "inhibition": "inconclusive: -69.3%"}
{"smiles": "CCc1cccc(C)c1NC(=S)N(Cc1cccnc1)Cc1ccco1", "inhibition": "inactive: 12%"}
{"smiles": "CCC(C)NS(=O)(=O)c1ccc(NC(C)=O)cc1", "note": "(stereo unspecified)", "inhibition": "inconclusive: -35.7%"}
{"smiles": "Cc1oc(-c2ccccc2Cl)nc1CSCC(=O)N1CCCC1", "inhibition": "inactive: 36.5%"}
{"smiles": "Cc1ccc(-c2nc(CS(=O)CC(=O)NC(C)CCc3ccccc3)c(C)o2)cc1", "note": "(stereo unspecified)", "inhibition": "inconclusive: -135%"}
{"smiles": "Cc1ccc(S(=O)(=O)N(Cc2cccc(C)c2)C(=O)N2CCN(C)CC2)cc1", "inhibition": "inconclusive: -47.2%"}
{"smiles": "Cc1cccc(C)c1NS(=O)(=O)c1cc2c3c(c1)CC(=O)N3CCC2", "inhibition": "active: 54.3%"}
{"smiles": "C#CCOCCOCCOCCNc1nc(N2CCN(C(=O)CCCCCCCCCCNC(=O)[C@H]([C@@H](C)CC)n3cc(CCCCN=C(N)N)nn3)CC2)nc(N2CCN(C(=O)CCCCCCCCCCNC(=O)[C@@H]([C@H](C)O)n3cc(C)nn3)CC2)n1", "inhibition": "inactive: 11%"}
{"smiles": "Oc1ccc(/C=N/Nc2ncc(Cl)cc2Cl)cc1", "inhibition": "inactive: 4.32%"}
{"smiles": "OCCCn1c(CCNc2nc(-c3ccc(Cl)cc3)cs2)nc2cc(C(F)(F)F)ccc21", "inhibition": "inactive: 0.0272%"}
{"smiles": "O=C(NCc1n[nH]c(=S)n1-c1cccc(Cl)c1)c1ccc(S(=O)(=O)N2CCCCC2)cc1", "inhibition": "active: 83.8%"}
{"smiles": "COc1cccc(N2CCN(CC(=O)NCc3cccs3)CC2)c1", "inhibition": "inactive: -0.617%"}
